Results reported in the supplement of paper PMC12067093, “Discovery and optimisation of a covalent ligand for TRIM25 and its application to targeted protein ubiquitination” (Chemical Science, 2025).
Some of the results follow.

The chains behind the UniProt entries cited, without tags or fusion partners. Where a name states a change or a piece, a line headed by the entry shows the natural chain unless it says otherwise.
UniProt P32189: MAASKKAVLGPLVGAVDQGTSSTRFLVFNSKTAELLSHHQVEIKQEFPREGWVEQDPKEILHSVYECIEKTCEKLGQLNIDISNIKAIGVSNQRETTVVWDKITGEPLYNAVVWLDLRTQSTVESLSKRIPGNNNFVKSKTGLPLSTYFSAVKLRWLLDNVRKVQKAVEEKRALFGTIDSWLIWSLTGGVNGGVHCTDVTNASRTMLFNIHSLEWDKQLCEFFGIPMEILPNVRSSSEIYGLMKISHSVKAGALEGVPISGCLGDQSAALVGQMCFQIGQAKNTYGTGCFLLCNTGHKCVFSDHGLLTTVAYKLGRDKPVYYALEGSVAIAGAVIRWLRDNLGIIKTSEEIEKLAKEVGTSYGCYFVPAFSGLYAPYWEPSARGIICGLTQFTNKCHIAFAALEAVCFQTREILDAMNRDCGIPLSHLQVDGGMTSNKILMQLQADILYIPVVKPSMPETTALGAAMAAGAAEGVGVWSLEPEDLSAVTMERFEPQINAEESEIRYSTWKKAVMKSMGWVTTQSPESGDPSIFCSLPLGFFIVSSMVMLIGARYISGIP
UniProt P07902: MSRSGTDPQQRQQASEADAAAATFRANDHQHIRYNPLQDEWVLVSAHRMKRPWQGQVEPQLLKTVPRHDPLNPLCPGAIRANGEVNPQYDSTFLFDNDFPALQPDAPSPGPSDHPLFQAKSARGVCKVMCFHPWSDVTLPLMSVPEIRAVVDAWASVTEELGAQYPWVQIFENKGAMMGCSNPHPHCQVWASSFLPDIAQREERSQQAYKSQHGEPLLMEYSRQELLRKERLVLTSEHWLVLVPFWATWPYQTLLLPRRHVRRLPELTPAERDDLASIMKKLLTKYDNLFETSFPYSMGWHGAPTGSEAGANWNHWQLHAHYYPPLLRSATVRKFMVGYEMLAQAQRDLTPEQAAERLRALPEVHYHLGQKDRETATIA
UniProt O75879: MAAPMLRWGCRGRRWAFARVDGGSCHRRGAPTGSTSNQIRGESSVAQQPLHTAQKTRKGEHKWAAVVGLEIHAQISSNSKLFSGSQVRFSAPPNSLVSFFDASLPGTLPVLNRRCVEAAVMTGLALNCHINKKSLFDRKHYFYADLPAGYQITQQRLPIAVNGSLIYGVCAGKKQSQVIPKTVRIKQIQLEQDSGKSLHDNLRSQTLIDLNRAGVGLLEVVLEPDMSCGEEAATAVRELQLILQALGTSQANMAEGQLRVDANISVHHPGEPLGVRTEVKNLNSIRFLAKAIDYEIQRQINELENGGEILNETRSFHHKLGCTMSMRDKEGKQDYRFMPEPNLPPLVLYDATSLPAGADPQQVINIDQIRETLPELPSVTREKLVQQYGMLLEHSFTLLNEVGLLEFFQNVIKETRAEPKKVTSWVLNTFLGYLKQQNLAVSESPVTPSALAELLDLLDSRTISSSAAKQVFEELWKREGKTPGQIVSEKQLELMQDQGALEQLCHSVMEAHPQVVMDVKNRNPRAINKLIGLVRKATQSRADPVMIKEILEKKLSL
UniProt Q8TEQ6: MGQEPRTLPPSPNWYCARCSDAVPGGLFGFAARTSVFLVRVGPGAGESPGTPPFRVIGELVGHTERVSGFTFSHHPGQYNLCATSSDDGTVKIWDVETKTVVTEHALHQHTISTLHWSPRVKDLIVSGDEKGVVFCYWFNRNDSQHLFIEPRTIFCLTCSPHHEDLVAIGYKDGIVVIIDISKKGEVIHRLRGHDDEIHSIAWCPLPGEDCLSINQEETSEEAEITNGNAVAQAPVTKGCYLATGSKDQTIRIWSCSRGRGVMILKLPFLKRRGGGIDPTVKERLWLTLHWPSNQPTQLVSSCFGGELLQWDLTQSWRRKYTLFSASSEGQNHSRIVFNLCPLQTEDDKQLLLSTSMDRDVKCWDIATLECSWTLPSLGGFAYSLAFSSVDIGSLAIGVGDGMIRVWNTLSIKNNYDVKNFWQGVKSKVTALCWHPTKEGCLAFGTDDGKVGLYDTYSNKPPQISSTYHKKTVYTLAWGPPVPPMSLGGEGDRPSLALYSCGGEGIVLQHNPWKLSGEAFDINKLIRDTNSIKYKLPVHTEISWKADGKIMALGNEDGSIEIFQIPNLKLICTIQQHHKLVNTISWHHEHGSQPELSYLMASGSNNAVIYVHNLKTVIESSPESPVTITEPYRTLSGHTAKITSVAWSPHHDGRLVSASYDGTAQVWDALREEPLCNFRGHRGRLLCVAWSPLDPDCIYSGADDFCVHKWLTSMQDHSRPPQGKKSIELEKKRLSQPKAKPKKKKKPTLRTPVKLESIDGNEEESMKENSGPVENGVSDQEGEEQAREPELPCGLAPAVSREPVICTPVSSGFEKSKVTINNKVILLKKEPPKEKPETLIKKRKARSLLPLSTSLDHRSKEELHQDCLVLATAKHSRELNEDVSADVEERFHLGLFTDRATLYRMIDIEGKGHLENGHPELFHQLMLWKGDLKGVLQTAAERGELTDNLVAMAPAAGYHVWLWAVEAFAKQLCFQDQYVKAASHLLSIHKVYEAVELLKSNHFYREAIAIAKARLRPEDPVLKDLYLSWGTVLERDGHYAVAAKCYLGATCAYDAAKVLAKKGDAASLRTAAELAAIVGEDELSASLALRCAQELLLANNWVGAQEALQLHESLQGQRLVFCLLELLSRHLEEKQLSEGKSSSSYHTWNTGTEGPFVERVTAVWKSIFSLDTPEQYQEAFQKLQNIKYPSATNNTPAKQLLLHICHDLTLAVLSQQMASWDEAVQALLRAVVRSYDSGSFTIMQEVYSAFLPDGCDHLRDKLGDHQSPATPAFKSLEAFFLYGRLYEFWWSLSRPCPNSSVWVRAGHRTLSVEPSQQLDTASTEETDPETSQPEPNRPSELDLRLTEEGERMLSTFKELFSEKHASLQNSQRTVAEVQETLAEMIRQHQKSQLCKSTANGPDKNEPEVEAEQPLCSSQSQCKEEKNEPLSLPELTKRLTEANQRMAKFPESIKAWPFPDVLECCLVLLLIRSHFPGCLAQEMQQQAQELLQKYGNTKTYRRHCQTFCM
UniProt Q9H3C7, whole entry, looked up: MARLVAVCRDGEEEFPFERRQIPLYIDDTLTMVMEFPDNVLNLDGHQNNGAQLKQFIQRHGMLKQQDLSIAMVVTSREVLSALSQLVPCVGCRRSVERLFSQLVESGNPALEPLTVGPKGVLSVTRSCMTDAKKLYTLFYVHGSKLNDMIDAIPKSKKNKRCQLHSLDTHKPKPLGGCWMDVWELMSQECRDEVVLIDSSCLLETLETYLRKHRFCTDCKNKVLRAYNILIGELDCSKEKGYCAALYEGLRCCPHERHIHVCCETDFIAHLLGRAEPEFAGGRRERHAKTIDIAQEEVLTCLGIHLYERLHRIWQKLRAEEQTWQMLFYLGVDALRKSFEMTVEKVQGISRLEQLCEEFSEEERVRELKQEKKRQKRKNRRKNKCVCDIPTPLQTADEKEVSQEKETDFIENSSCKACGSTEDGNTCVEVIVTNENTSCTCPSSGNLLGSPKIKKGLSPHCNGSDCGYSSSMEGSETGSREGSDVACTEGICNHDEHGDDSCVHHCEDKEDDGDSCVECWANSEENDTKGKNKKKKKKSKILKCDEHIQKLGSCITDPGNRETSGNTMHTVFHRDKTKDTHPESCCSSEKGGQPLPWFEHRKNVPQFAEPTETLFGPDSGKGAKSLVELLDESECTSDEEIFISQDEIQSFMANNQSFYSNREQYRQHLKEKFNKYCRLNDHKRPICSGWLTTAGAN
UniProt Q8IWJ2: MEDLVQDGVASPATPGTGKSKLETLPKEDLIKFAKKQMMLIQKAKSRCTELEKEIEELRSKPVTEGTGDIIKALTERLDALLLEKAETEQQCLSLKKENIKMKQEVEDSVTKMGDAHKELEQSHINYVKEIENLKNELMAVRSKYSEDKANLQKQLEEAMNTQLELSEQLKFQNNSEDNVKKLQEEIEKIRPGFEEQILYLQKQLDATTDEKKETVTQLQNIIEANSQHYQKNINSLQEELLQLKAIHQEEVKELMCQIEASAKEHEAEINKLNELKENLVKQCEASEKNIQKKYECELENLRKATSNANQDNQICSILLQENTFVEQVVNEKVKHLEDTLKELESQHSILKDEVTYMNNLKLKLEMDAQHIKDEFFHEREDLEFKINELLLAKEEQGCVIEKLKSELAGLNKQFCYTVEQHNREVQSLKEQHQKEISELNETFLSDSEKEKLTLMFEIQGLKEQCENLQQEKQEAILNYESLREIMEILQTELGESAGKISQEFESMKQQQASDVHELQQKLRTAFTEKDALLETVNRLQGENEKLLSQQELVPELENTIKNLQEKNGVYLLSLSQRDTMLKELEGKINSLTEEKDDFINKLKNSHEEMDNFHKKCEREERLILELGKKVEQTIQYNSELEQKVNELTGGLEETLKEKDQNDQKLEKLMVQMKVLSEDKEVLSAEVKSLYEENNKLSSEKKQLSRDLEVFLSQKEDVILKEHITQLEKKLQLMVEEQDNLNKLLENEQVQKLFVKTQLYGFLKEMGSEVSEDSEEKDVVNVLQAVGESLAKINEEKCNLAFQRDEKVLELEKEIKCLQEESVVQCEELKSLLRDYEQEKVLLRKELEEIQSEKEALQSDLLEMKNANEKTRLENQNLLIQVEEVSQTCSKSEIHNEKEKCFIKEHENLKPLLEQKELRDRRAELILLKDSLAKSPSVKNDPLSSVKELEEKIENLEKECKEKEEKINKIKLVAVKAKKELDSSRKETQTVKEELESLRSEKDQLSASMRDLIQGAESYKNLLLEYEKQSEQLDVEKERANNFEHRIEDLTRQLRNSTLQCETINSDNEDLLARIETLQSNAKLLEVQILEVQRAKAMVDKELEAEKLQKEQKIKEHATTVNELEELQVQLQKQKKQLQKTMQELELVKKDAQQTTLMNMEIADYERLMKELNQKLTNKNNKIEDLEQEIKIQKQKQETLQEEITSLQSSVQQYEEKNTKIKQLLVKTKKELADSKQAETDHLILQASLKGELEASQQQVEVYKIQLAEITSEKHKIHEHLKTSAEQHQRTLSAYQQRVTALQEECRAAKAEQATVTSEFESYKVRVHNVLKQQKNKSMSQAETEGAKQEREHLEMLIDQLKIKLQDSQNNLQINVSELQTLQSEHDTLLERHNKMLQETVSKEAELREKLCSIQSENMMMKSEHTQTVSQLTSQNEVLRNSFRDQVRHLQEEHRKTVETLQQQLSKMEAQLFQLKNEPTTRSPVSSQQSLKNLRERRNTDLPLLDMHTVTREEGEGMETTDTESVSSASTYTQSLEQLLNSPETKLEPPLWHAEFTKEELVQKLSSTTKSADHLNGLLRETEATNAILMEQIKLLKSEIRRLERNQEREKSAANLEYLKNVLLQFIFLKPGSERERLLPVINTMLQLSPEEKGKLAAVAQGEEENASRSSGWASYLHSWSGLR
UniProt Q9NZC3: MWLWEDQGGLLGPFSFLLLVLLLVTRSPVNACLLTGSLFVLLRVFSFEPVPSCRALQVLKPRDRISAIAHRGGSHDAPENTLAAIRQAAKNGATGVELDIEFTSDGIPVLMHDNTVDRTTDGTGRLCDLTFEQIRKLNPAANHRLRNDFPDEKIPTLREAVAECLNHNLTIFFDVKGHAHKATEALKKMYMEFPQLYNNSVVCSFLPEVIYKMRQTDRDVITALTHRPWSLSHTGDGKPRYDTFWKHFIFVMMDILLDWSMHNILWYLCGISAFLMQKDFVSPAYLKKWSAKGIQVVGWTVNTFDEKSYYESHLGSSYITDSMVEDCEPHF
UniProt Q06210: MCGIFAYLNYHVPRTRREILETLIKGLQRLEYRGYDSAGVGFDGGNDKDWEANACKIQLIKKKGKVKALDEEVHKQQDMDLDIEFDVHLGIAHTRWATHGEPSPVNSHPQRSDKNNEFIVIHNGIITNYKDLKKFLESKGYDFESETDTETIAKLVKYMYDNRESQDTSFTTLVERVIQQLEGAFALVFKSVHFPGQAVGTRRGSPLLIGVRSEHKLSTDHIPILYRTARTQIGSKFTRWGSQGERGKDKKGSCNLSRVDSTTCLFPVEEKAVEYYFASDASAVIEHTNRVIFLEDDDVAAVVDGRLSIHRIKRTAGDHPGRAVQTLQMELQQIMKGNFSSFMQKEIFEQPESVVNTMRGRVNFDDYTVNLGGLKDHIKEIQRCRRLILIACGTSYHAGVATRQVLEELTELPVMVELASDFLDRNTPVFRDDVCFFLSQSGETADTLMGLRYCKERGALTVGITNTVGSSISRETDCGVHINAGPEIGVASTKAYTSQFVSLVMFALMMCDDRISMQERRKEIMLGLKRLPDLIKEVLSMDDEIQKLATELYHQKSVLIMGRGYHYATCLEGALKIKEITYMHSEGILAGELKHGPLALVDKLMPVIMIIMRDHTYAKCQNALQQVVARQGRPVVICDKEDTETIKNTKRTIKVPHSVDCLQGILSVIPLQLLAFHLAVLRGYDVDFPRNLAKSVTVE

Compound: Cc1cc(ccc1-c1ccccc1)C(=O)N1CCCN(CC1)C(=O)CCl [compound 10]
Assay: probe-labelled cysteine peptide fold change vs DMSO (competition) (log2 fold change); higher = less target engagement (more negative = stronger competition)
Conditions: THP-1, incubation time: 4 h
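Note: competitive profiling in live THP-1 cells: cysteine peptides tagged with an iodoacetamide desthiobiotin (IA-DTB) probe, intensity after compound treatment relative to DMSO-treated cells.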

Q: “GK_P32189_67_EILHSVYECIEK (UniProt P32189)” was tested. Which “probe-labelled cysteine peptide fold change” value (10 µM) did it give?
A: The value was 0.245.

Q: And the “probe-labelled cysteine peptide fold change” value (50 µM)?
A: Its value is 0.245.

Q: How did the “probe-labelled cysteine peptide fold change” value (10 µM) turn out when “GALT_P07902_180+187_GAMMGCSNPHPHCQVWASSFLPDIAQR (UniProt P07902)” was run?
A: Its value is 0.00819.

Q: What about the “probe-labelled cysteine peptide fold change” value (50 µM) of the same target?
A: Its value is -0.138.

Q: Which “probe-labelled cysteine peptide fold change” value (10 µM) does the source give for “GATB_O75879_228_AGVGLLEVVLEPDMSCGEEAATAVR (UniProt O75879)” here?
A: Its value is -0.0137.

Q: And the “probe-labelled cysteine peptide fold change” value (50 µM)?
A: Its value is -0.148.

Q: For “GCN1_Q92616_932_LLKPECVLDK (UniProt Q92616)”, which “probe-labelled cysteine peptide fold change” value (10 µM) is on record?
A: Its value is -0.47.

Q: And the “probe-labelled cysteine peptide fold change” value (50 µM)?
A: The value was -0.11.

Q: What does the source list for “GIT2_Q14161_149_TGNLETCLR (UniProt Q14161)”?
A: probe-labelled cysteine peptide fold change (10 µM): 0.0754; probe-labelled cysteine peptide fold change (50 µM): 0.117

Q: Which “probe-labelled cysteine peptide fold change” value (10 µM) does the source give for “GEMIN5_Q8TEQ6_341_IVFNLCPLQTEDDK (UniProt Q8TEQ6)” here?
A: The value was 0.163.

Q: And the “probe-labelled cysteine peptide fold change” value (50 µM)?
A: The value was 0.0986.

Q: For “GCN1_Q92616_1482_EAADDCAK (UniProt Q92616)”, which “probe-labelled cysteine peptide fold change” value (10 µM) is on record?
A: The value was 0.000972.

Q: And the “probe-labelled cysteine peptide fold change” value (50 µM)?
A: Its value is -0.257.

Q: How did the “probe-labelled cysteine peptide fold change” value (10 µM) turn out when “GIMAP1_Q8WWP7_181_ELVAECGGR (UniProt Q8WWP7)” was run?
A: The value was -0.196.

Q: What about the “probe-labelled cysteine peptide fold change” value (50 µM) of the same target?
A: The value was -0.0158.

Q: Which “probe-labelled cysteine peptide fold change” value (10 µM) does the source give for “GGNBP2_Q9H3C7_586_DTHPESCCSSEK (UniProt Q9H3C7)” here?
A: Its value is -0.226.

Q: And the “probe-labelled cysteine peptide fold change” value (50 µM)?
A: Its value is -0.298.

Q: For “GEMIN4_P57678_210_SDPDACPTMPLLAMLLR (UniProt P57678)”, which “probe-labelled cysteine peptide fold change” value (10 µM) is on record?
A: Its value is -0.127.

Q: What about the “probe-labelled cysteine peptide fold change” value (50 µM) of the same target?
A: Its value is -0.674.

Q: What does the source list for “GID8_Q9NWU2_139_ECLTEMER (UniProt Q9NWU2)”?
A: probe-labelled cysteine peptide fold change (10 µM): -0.0332; probe-labelled cysteine peptide fold change (50 µM): 0.281

Q: “GK_P32189_289+293_NTYGTGCFLLCNTGHK (UniProt P32189)” was tested. Which “probe-labelled cysteine peptide fold change” value (10 µM) did it give?
A: The value was 0.0602.

Q: What about the “probe-labelled cysteine peptide fold change” value (50 µM) of the same target?
A: Its value is -0.0301.

Q: What does the source list for “GFM2_Q969S9_329_VTLAQTAVPVLCGSALK (UniProt Q969S9)”?
A: probe-labelled cysteine peptide fold change (10 µM): -0.0769; probe-labelled cysteine peptide fold change (50 µM): 0.0109

Q: “GATD1_Q8NB37_94_YHALLIPSCPGALTDLASSGSLAR (UniProt Q8NB37)” was tested. Which “probe-labelled cysteine peptide fold change” value (10 µM) did it give?
A: Its value is 0.0159.

Q: And the “probe-labelled cysteine peptide fold change” value (50 µM)?
A: The value was -0.00276.

Q: Which “probe-labelled cysteine peptide fold change” value (10 µM) does the source give for “GCLM_P48507_194_PNSNQVNLASCCVMPPDLTAFAK (UniProt P48507)” here?
A: The value was 0.0384.

Q: What about the “probe-labelled cysteine peptide fold change” value (50 µM) of the same target?
A: The value was -0.0543.

Q: What does the source list for “GEMIN2_O14893_264_LLVDSKDDERVPALNLLICLVSR (UniProt O14893)”?
A: probe-labelled cysteine peptide fold change (10 µM): 0.201; probe-labelled cysteine peptide fold change (50 µM): -0.54

Q: Which results are given for “GALT_P07902_130_VMCFHPWSDVTLPLMSVPEIR (UniProt P07902)”?
A: probe-labelled cysteine peptide fold change (10 µM): 0.0562; probe-labelled cysteine peptide fold change (50 µM): -0.251

Q: Which “probe-labelled cysteine peptide fold change” value (10 µM) does the source give for “GCC2_Q8IWJ2_92_AETEQQCLSLK (UniProt Q8IWJ2)” here?
A: Its value is 0.312.

Q: What about the “probe-labelled cysteine peptide fold change” value (50 µM) of the same target?
A: Its value is 0.569.

Q: Which “probe-labelled cysteine peptide fold change” value (10 µM) does the source give for “GIT1_Q9Y2X7_122_LPCRDDDGVTAK (UniProt Q9Y2X7)” here?
A: The value was -0.137.

Q: And the “probe-labelled cysteine peptide fold change” value (50 µM)?
A: Its value is -0.385.

Q: “GBF1_Q92538_1707_IDCFLPHLR (UniProt Q92538)” was tested. Which “probe-labelled cysteine peptide fold change” value (10 µM) did it give?
A: Its value is 0.104.

Q: And the “probe-labelled cysteine peptide fold change” value (50 µM)?
A: Its value is 0.244.

Q: How did the “probe-labelled cysteine peptide fold change” value (10 µM) turn out when “GATM_P50440_324_DPNPMHIDATFNIIGPGIVLSNPDRPCHQIDLFK (UniProt P50440)” was run?
A: Its value is 0.122.

Q: And the “probe-labelled cysteine peptide fold change” value (50 µM)?
A: The value was 0.703.

Q: Which “probe-labelled cysteine peptide fold change” value (10 µM) does the source give for “GATM_P50440_410_NANSLGGGFHCWTCDVR (UniProt P50440)” here?
A: Its value is 0.0489.

Q: And the “probe-labelled cysteine peptide fold change” value (50 µM)?
A: Its value is 0.0707.

Q: With “GDE1_Q9NZC3_127_LCDLTFEQIR (UniProt Q9NZC3)” as the target, how does the “probe-labelled cysteine peptide fold change” value (10 µM) read?
A: Its value is -0.123.

Q: And the “probe-labelled cysteine peptide fold change” value (50 µM)?
A: Its value is 0.0263.

Q: What does the source list for “GATM_P50440_50_NSCAADDK (UniProt P50440)”?
A: probe-labelled cysteine peptide fold change (10 µM): -0.478; probe-labelled cysteine peptide fold change (50 µM): -1.27

Q: What does the source list for “GGA2_Q9UJY4_343_VFQNPAGCMK (UniProt Q9UJY4)”?
A: probe-labelled cysteine peptide fold change (10 µM): -0.124; probe-labelled cysteine peptide fold change (50 µM): -0.564

Q: With “GHDC_Q8N2G8_73_WCLQGAQRPHCSLR (UniProt Q8N2G8)” as the target, how does the “probe-labelled cysteine peptide fold change” value (10 µM) read?
A: The value was -0.0806.

Q: What about the “probe-labelled cysteine peptide fold change” value (50 µM) of the same target?
A: Its value is -0.19.

Q: What does the source list for “GALNT12_Q8IXK2_233_GDVLTFLDCHCECHEGWLEPLLQR (UniProt Q8IXK2)”?
A: probe-labelled cysteine peptide fold change (10 µM): 0.185; probe-labelled cysteine peptide fold change (50 µM): -0.217

Q: What does the source list for “GGNBP2_Q9H3C7_92_EVLSALSQLVPCVGCR (UniProt Q9H3C7)”?
A: probe-labelled cysteine peptide fold change (10 µM): 0.105; probe-labelled cysteine peptide fold change (50 µM): 0.133

Q: Which results are given for “GCN1_Q92616_1527_AGSVELLGAMAYCAPK (UniProt Q92616)”?
A: probe-labelled cysteine peptide fold change (10 µM): 0.0969; probe-labelled cysteine peptide fold change (50 µM): -0.196

Q: For “GCC2_Q8IWJ2_1061_NSTLQCETINSDNEDLLAR (UniProt Q8IWJ2)”, which “probe-labelled cysteine peptide fold change” value (10 µM) is on record?
A: Its value is -0.0199.

Q: What about the “probe-labelled cysteine peptide fold change” value (50 µM) of the same target?
A: Its value is -0.302.

Q: For “GGA1_Q9UJY5_73_IQSPQEWEAIQALTVLETCMK (UniProt Q9UJY5)”, which “probe-labelled cysteine peptide fold change” value (10 µM) is on record?
A: The value was 0.2.

Q: And the “probe-labelled cysteine peptide fold change” value (50 µM)?
A: Its value is 0.173.

Q: Which results are given for “GDI2_P50395_335_SDIYVCMISFAHNVAAQGK (UniProt P50395)”?
A: probe-labelled cysteine peptide fold change (10 µM): -0.0231; probe-labelled cysteine peptide fold change (50 µM): 0.3

Q: “GARS_P41250_444_QHMENEMAHYACDCWDAESK (UniProt P41250)” was tested. Which “probe-labelled cysteine peptide fold change” value (10 µM) did it give?
A: Its value is 0.136.

Q: What about the “probe-labelled cysteine peptide fold change” value (50 µM) of the same target?
A: Its value is -0.0873.

Q: How did the “probe-labelled cysteine peptide fold change” value (10 µM) turn out when “GANAB_Q14697_502_DGSDYEGWCWPGSAGYPDFTNPTMR (UniProt Q14697)” was run?
A: Its value is -0.189.

Q: And the “probe-labelled cysteine peptide fold change” value (50 µM)?
A: The value was 0.0705.

Q: “GEMIN5_Q8TEQ6_82_VSGFTFSHHPGQYNLCATSSDDGTVK (UniProt Q8TEQ6)” was tested. Which “probe-labelled cysteine peptide fold change” value (10 µM) did it give?
A: The value was 0.193.

Q: What about the “probe-labelled cysteine peptide fold change” value (50 µM) of the same target?
A: The value was 0.148.

Q: How did the “probe-labelled cysteine peptide fold change” value (10 µM) turn out when “GALNT2_Q10471_229_VLTFLDSHCECNEHWLEPLLER (UniProt Q10471)” was run?
A: Its value is 0.0448.

Q: And the “probe-labelled cysteine peptide fold change” value (50 µM)?
A: The value was -0.0647.

Q: Which “probe-labelled cysteine peptide fold change” value (10 µM) does the source give for “GINS4_Q9BRT9_53_FAPELLESKPEIVECVMEQLEHMEENLR (UniProt Q9BRT9)” here?
A: The value was -0.0503.

Q: And the “probe-labelled cysteine peptide fold change” value (50 µM)?
A: The value was 0.0806.

Q: Which “probe-labelled cysteine peptide fold change” value (10 µM) does the source give for “GANAB_Q14697_822_SSECMKDDPITLFVALSPQGTAQGELFLDDGHTFNYQTR (UniProt Q14697)” here?
A: The value was 0.0598.

Q: And the “probe-labelled cysteine peptide fold change” value (50 µM)?
A: The value was 0.0773.

Q: For “GATB_O75879_115_CVEAAVMTGLALNCHINKK (UniProt O75879)”, which “probe-labelled cysteine peptide fold change” value (10 µM) is on record?
A: The value was 0.00108.

Q: What about the “probe-labelled cysteine peptide fold change” value (50 µM) of the same target?
A: Its value is 0.00339.

Q: How did the “probe-labelled cysteine peptide fold change” value (10 µM) turn out when “GGA3_Q9NZ52_255_ELFDQCENK (UniProt Q9NZ52)” was run?
A: The value was -0.0153.

Q: And the “probe-labelled cysteine peptide fold change” value (50 µM)?
A: Its value is -0.0928.

Q: Which results are given for “GFPT1_Q06210_435_DDVCFFLSQSGETADTLMGLR (UniProt Q06210)”?
A: probe-labelled cysteine peptide fold change (10 µM): 0.346; probe-labelled cysteine peptide fold change (50 µM): 0.332

Q: With “GEMIN8_Q9NWZ8_180_QQQLDAERLDSYVNADHDLYCNTR (UniProt Q9NWZ8)” as the target, how does the “probe-labelled cysteine peptide fold change” value (10 µM) read?
A: Its value is 0.0135.

Q: What about the “probe-labelled cysteine peptide fold change” value (50 µM) of the same target?
A: Its value is -0.0851.
